Results: PubChem BioAssay AID1347046 (National Center for Advancing Translational Sciences (NCATS), 2019)
About 940 (67%) of roughly 1,400 compounds were called active. So high a share suggests a set chosen from earlier hits. Inconclusive means that the source gave no clear call. Such entries were picked first, then a sample of the others. Calls follow the shape of the full dose curve. A potency beside an inconclusive call is a rough fit, not a confirmed value.

The chains behind the UniProt entries cited, without tags or fusion partners. Where a name states a change or a piece, a line headed by the entry shows the natural chain unless it says otherwise.
UniProt P20594: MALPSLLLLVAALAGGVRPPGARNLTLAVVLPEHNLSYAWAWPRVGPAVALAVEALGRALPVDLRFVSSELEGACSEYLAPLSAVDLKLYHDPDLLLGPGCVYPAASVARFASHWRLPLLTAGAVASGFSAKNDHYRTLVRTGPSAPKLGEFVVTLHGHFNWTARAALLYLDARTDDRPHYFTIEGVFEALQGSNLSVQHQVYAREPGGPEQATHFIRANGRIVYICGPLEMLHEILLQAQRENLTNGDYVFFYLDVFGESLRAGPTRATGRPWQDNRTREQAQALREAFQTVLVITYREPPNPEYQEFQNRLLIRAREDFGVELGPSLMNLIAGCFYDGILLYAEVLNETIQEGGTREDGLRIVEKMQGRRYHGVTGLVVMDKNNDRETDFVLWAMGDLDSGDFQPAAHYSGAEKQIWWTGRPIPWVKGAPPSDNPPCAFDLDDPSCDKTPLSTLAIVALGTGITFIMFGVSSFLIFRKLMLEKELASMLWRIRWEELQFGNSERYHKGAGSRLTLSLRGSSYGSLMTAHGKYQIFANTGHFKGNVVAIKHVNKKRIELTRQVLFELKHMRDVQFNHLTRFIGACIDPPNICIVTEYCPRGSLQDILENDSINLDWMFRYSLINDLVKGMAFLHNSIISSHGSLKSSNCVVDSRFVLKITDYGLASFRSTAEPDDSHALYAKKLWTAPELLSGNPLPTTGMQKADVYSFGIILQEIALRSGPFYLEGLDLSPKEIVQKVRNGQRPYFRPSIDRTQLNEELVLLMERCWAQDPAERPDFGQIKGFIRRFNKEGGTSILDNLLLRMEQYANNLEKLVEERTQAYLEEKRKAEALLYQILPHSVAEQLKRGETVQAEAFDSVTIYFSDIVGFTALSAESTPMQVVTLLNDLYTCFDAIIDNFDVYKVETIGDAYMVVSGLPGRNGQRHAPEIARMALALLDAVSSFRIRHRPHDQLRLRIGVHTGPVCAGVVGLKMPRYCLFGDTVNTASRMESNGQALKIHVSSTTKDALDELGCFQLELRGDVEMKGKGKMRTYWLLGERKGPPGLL

Each compound was assayed against Atrial natriuretic peptide receptor 2 (Homo sapiens) (UniProt P20594) (assay: Natriuretic polypeptide receptor (hNpr2) antagonism - Subtype selectivity assay). Settings: HEK293 hNpr2 GloSensor cGMP luminescence, CNP-stimulated; series mostly up to 57.6 µM.
How it was run: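 HEK293 hNpr2 cGMP-sensor cells; 2% GloSensor reagent 2 h RT; compound 30 min; baseline read; 1 nM hNppC agonist 20 min RT; luminescence read. Compounds tested as 1:3 titrations.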
Also: nearly all actives have a fitted effect of over 70% in size.
Potency is read from the fitted curve at half-maximal effect.

Structure (SMILES) | Potency
CCNC(=O)N1CC(C(=O)NCc2cccc(C)c2)CC(c2ccc(F)c(C)c2)C1 (stereo unspecified) | inconclusive: 43.2 µM [inhibitor, single point]
COc1ccc(CN2CCOc3nc(-c4cccc(C(F)(F)F)c4)ncc3C2=O)cc1 | active: 35.3 µM
Cc1cc(CNC(=O)c2ccc(-c3ccccc3Cl)o2)n(C)n1 | inconclusive: 21.7 µM [inhibitor, partial curve]
COc1ccc(NC(=O)Cn2c(N(C)Cc3ccccc3)nc(C)cc2=O)cc1 | inconclusive: 19.3 µM [inhibitor, partial curve]
COc1ccc(CNC(=O)N2CCC(Oc3ccc(-c4noc(C5CC5)n4)cc3)C2)cc1 (stereo unspecified) | inconclusive: 30.6 µM [inhibitor, single point]
CCc1ccc(C(=O)N2CCC(Cc3nc(C(C)C)no3)CC2)cc1 | inconclusive: 24.3 µM [inhibitor, partial curve]
O=C1COc2ccc(N3CCCC3)nc2CN1Cc1ccc(C(F)(F)F)cc1 | inconclusive: 44.4 µM [inhibitor, single point]
Cc1nn2c(c1-c1ccccc1Oc1ccccc1)N(Cc1ccc(C(=O)O)s1)CCC2 | inconclusive: 17.2 µM [inhibitor, partial curve]
CC1=NS(=O)(=O)N(C)C=C1C(=O)OCc1noc(-c2ccco2)n1 | inconclusive: 27.3 µM [inhibitor, single point]
COc1ccccc1C(=O)NC1CCN(c2cc(C(F)(F)F)nc(C)n2)CC1 | inactive
CN(C)c1cccc(Oc2nnnn2[C@H]2CO[C@H]3[C@@H]2OC[C@@H]3NC(=O)c2ccccc2)c1 | inconclusive: 21.7 µM [inhibitor, partial curve]
O=C(CCC1CCN(C(=O)c2ccccc2F)CC1)Nc1cccc(Cl)c1 | inconclusive: 21.7 µM [inhibitor, partial curve]
COc1ccc(-c2noc(CC3CCN(C(=O)c4cc(Cl)ccc4OC)CC3)n2)cc1 | active: 24.3 µM
Cn1cc(-c2cnc3[nH]cc(CC(=O)Nc4ccc(C(F)(F)F)cc4)c3c2)cn1 | inconclusive: 15.7 µM [inhibitor, partial curve]
COc1ccc(C(=O)Nc2ccc(-c3noc([C@@H]4CCCN4Cc4ccco4)n3)cn2)cc1 | active: 19.3 µM
COc1ccccc1-c1ccc(CN2CCCC(c3nc4ccc(C)cc4c(=O)[nH]3)C2)cc1 (stereo unspecified) | inconclusive: 38.5 µM [inhibitor, single point]
Cc1cc(=O)n(CC(=O)Nc2ccc(C)c(F)c2)c(N2CCc3ccccc3C2)n1 | inactive
Cc1ccc(C(=O)N2CCN(C(=O)c3nnn4c3COC(c3ccc(Cl)cc3)C4)CC2)c(C)c1 (stereo unspecified) | active: 24.3 µM
Fc1cccc(CN2CCC(Oc3ccc(-c4noc(C5CC5)n4)cc3)C2)c1 (stereo unspecified) | inconclusive: 21.7 µM [inhibitor, partial curve]
COc1cccc(CC(=O)NC2CCN(c3cc(-c4ccc(Cl)cc4)[nH]n3)CC2)c1 | inconclusive: 19.3 µM [inhibitor, partial curve]
Cc1ccc(OCCC2CCN(C(=O)Cc3cccnc3)C2)cc1 (stereo unspecified) | inconclusive: 24.3 µM [inhibitor, partial curve]

At a glance, part of the list above.
Structure (SMILES) | Potency
COc1ccc(CN2CCOc3nc(-c4cccc(C(F)(F)F)c4)ncc3C2=O)cc1 | active: 35.3 µM
Cc1cc(CNC(=O)c2ccc(-c3ccccc3Cl)o2)n(C)n1 | inconclusive: 21.7 µM [inhibitor, partial curve]
COc1ccc(NC(=O)Cn2c(N(C)Cc3ccccc3)nc(C)cc2=O)cc1 | inconclusive: 19.3 µM [inhibitor, partial curve]

(cont.)

Structure (SMILES) | Potency
O=C(NCc1ccccc1)c1ccc2c(c1)OCCN(c1ccccc1)C2 | inconclusive: 25 µM [inhibitor, partial curve]
COc1ccc(NC(=O)c2ccc3c(c2)NC(C)(CNc2ccccc2)CO3)cn1 (stereo unspecified) | inconclusive: 39.6 µM [inhibitor, partial curve, poor fit]
O=C(c1ccc(F)cc1)N1CCC2(CC1)CC(N(Cc1ccc(F)cc1)C1CC1)CCO2 (stereo unspecified) | inconclusive: 30.6 µM [inhibitor, single point]
COc1ccc([S+](=O)([O-])N2CCC3(CC2)OCCN(c2ccc(F)cc2)C3=O)cc1 | inconclusive: 22.2 µM [inhibitor, partial curve]
COc1ncccc1-c1cnc2[nH]cc(CC(=O)Nc3cccc(Cl)c3)c2c1 | inconclusive: 44.4 µM [inhibitor, single point]
Cc1ccc(NC(=O)N2CCC3(CC2)CC(Cc2nc(-c4ccccc4)no2)CCO3)cc1C (stereo unspecified) | active: 15.3 µM
Cc1cc(=O)n(CC(=O)Nc2ccc(Cl)cc2F)c(N(C)Cc2ccccc2)n1 | inconclusive: 21.7 µM [inhibitor, partial curve]
COc1ccc(CN2Cc3[nH]cnc3C[C@H]2C(=O)NCc2ccccc2)c2ccccc12 | inconclusive: 39.6 µM [inhibitor, partial curve]
COc1cccc(-c2ccccc2NC(=O)C2CCN(Cc3cc(OC)ccc3O)CC2)c1 | inconclusive: 21.7 µM [inhibitor, partial curve]
CNC(=O)N1CCCC(c2nc(CCOCC3CCCC3)no2)C1 (stereo unspecified) | inconclusive: 27.3 µM [inhibitor, single point]
CC1(c2noc(C3CCOCC3)n2)CCN(Cc2ccc(Cl)cc2F)CC1 | active: 24.3 µM
Cc1ccc(NC(=O)c2cc3n(n2)CC(c2ccc4c(c2)OCO4)OC3)cc1Cl (stereo unspecified) | inconclusive: 30.6 µM [inhibitor, single point]
CCOc1ccc(C(=O)N2CCCN(c3cc(-c4ccc(F)cc4)[nH]n3)CC2)cc1 | inconclusive: 24.3 µM [inhibitor, partial curve]
O=C(NCc1cccs1)c1csc(N2CCN(c3ccccc3F)CC2)n1 | inconclusive: 27.3 µM [inhibitor, partial curve]
Cc1cnc(C(=O)N2CCCC2c2nc(CCOCC3CCCC3)no2)cn1 (stereo unspecified) | inactive
CS(=O)(=O)c1ccc(CN2CC[C@@H](c3ccc4ccccc4c3)[C@H](O)C2)cc1 | inconclusive: 24.3 µM [inhibitor, partial curve]
O=C(Cc1cccc(F)c1)N1CCC2(CC1)N=C(c1ccc(Cl)cc1)NO2 | inconclusive: 30.6 µM [inhibitor, single point]
COc1cccc(CN2CCC(Oc3ccc(-c4noc(C5CC5)n4)cc3)C2)c1 (stereo unspecified) | inconclusive: 34.3 µM [inhibitor, single point]
COC[C@@H]1CN(Cc2c(OC)cccc2OC)C[C@H]1c1ccncc1 | active: 15.3 µM
COc1ccc(C(CC(=O)N(C)Cc2cc(C3CC3)n[nH]2)c2ccccc2)cc1 (stereo unspecified) | inconclusive: 21.7 µM [inhibitor, partial curve, poor fit]
Cc1ccc(CNC(=O)N2CCC(Cc3ccc(C(=O)NC4CC4)cc3)CC2)cc1 | inconclusive: 19.3 µM [inhibitor, partial curve]

Structure (SMILES) | Potency
COc1cccc(NC(=O)Cc2c[nH]c3ncc(-c4cccnc4OC)cc23)c1 | inconclusive: 49.8 µM [inhibitor, single point]
COc1cc(Cl)ccc1C(=O)N1CCN(C(=O)c2nnn3c2COC(c2ccccc2)C3)CC1 (stereo unspecified) | inconclusive: 43.2 µM [inhibitor, single point]
O=C(c1ccccc1F)N1CCN(C(=O)c2nnn3c2COC(c2ccc(Cl)cc2)C3)CC1 (stereo unspecified) | inconclusive: 30.6 µM [inhibitor, single point]
O=C(Nc1cccc(F)c1)c1cnc(-c2ccc(F)cc2)nc1-c1ccncc1 | inconclusive: 30.6 µM [inhibitor, single point]
COc1ccc(CN2C(=O)[C@@H]3C[C@@H](CN3Cc3cccs3)Oc3ccccc32)cc1 | inconclusive: 28 µM [inhibitor, partial curve, poor fit]
CC(C)c1nncn1C1CCN(S(=O)(=O)c2ccc(Br)s2)CC1 | inconclusive: 21.7 µM [inhibitor, partial curve]
O=C(NCc1ccc(Cl)cc1)C1CCN(c2cc(C(F)(F)F)ncn2)CC1 | active: 19.3 µM
O=C(N1CCC(c2ccccc2)CC1)C1(c2ccc(Cl)cc2)CCOCC1 | inconclusive: 9.68 µM [inhibitor, partial curve]
CCOc1ccc(C(=O)N2CCCN(c3cc(-c4ccc(Cl)cc4)[nH]n3)CC2)cc1OCC | active: 17.2 µM
COc1ccc(OC)c(CN2CCCn3nc(C)c(-c4ccccc4C(C)C)c32)c1 | active: 39.6 µM
CC(C)(C)C(=O)N[C@H]1CO[C@H]2[C@@H]1OC[C@@H]2Nc1nccc(-c2ccc(-c3ccccc3)cc2)n1 | inconclusive: 24.3 µM [inhibitor, partial curve]
Cc1ccc(C(=O)N2CCC3(CC2)CC(N(Cc2ccccc2)C2CC2)CCO3)cc1F (stereo unspecified) | inconclusive: 21.7 µM [inhibitor, partial curve]
O=C(c1csc(N2CCN(c3ccccc3)CC2)n1)N1CCCCCC1 | active: 21.7 µM
COc1ccc2ccc(OCc3nc(C(=O)N(C)Cc4cc(C)no4)co3)cc2c1 | inconclusive: 30.6 µM [inhibitor, partial curve, poor fit]
CCC1=C(C(=O)OC)C(c2ccccc2F)N2C(CC(=O)N3CCCC3)=CSC2=N1 (stereo unspecified) | inconclusive: 43.2 µM [inhibitor, single point]
O=C1NCN(Cc2ccc(Cl)cc2)C12CCN(Cc1ccccc1)CC2 | active: 19.3 µM
O=C(NCc1nnc2cc(-c3nc(C4CC4)no3)ccn12)c1ccc(F)cc1Cl | active: 13.7 µM
Cc1cccc2nc(C(=O)N3CCCC(c4[nH]ncc4-c4ccccc4)C3)cn12 (stereo unspecified) | inconclusive: 19.3 µM [inhibitor, partial curve]
Cc1nn2c(c1-c1ccccc1Oc1ccccc1)N(C(=O)Cc1cccc(F)c1)CCC2 | inconclusive: 19.3 µM [inhibitor, partial curve]
